# Screening data

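Luminescence from an EWS-FLI1 target-promoter (NR0B1) reporter, set against a CMV-promoter reporter, two days after silencing single genes in TC32 Ewing sarcoma cells. Each siRNA was applied at 20 nM. A z-score of the log NR0B1-over-CMV signal, less the median of siRNAs with the same seed; more negative means a stronger specific loss of the NR0B1 reporter.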

The strongest results of the screen are mostly left out here. Sequences are the guide (antisense) strand, without overhang.

siRNA,gene,seed-corrected z-score
AACUUGUAAACAUAUUGAC,GATA5,0.5693
UUUCUCAUCAGAGUCGCGG,PTK6,-0.4501
UUCCUGUUCACGUUCUCCC,TRIM11,0.4475
UACCAUACUUCAGUCCUGG,ENTPD3,-0.08352
AAGAGAUAAAUAUUACUGC,SUCNR1,0.5302
UUCAAGGUAGAAAUUUUCC,UQCRBP1,0.2599
UUGGUAGUGUGAGCUGUUC,MUC5B,-0.2683
AUCGUUUUGGGAGAGCUUC,KRTAP4-6,-0.1318
UGAUUUAAACCUUUGAUUC,C15orf57,0.4735
UAAGAUUACUCCGUCAUCC,BCO1,0.3474
UCUUCAUCUCGUUUUUGCC,SYNC,-0.3522
UUGGUGGUAAGAUUGCUAG,OR6C4,-0.5574
UUAGGUAAAGCAGGAGUAC,IL13RA1,0.5976
AAAAUUACAACGAAUAUGA,SLCO4A1,0.3469
UCCAUAGUCACCAUGAGCC,RWDD2A,1.396
UUAAUGUCCACUGCGUCGA,BCL3,0.6817
UGUCGUAUUAGGGUCAUUG,ST3GAL6,-0.09584
UUCCCGUAAAUGUUCCAUC,LRCH2,-0.2021
UUACGUAUCGGAGGAUUGG,ERICH6,0.1986
UUCAAGAUUACUUCCACGG,SLC15A5,0.2071
UCAGUUCCAACCCAAAUGC,FANCF,0.5884
UUAGUUGAUUUGGGUAUGG,MUC17,-0.1877
UUUAUGGGCAGCAUAGUUC,TMPRSS11GP,0.036
UGAAUGUCUAUUGCGGCCG,TMEM266,0.4542
UCACAAACUGUAGAAAAGC,CCDC53,-0.07023
UCCACUAUACCGAUGGUCU,STX10,0.00193
UUUCAUGAGAUGCUCGUUG,CENPO,0.07151
AGCGUAAUGAGUACAGAAC,UTP20,0.7708
AACCUUUCUACAUCAUCUC,BEX4,1.258
AAUAUCAAUAAGAUCAUCC,INTU,0.2934
UUUGGUGUCGCGGUCGAUC,FSCN1,0.7005
AUAAUGAUCCCUUACAUCG,CCNT2,0.3125
UCAGCUUCAUCUUAAGCCC,SPDYE21P,-0.642
AAUGAGAUCAUGUAGCAUU,FLJ33360,-1.225
UCAGGAGCAUCUAGUAGCC,ZMAT5,0.7693
UAUCUUCAAAUGUUCGUCG,GSS,-0.6773
UUGAUUUGCGGGAACAUCU,SLC6A20,1.113
UCCUGUUCUUUCGAUUUCC,FBXO8,-0.7277
UUUAUCACCAUUCAUUCGG,TUSC3,-0.2207
AUCUGGUCCAUACACGCUG,B9D1,-0.3605
UAGCGGCUCACAACCAUCC,ZNF784,-0.341
UUUGAUACAUCGGGAAUUG,ANO6,0.2082
UUAAACUCCACGUUCUCAG,SIRPG,-0.6523
UUGGAACCCAGUGUGAGCG,SLC34A1,-0.9302
UCUUUUCCCAUACCUAGGC,PPY,-0.1344
AAAUUGUAGAUUAGCAUUC,SMTNL2,-1.204
UCAUAUUUCUGGGUCAUCU,PVRL4,-0.1281
UUAGGAUAAAGAAACUGGA,ATP5F1,-0.2488
UAUGGUCGGAGGGUAAAUC,SLC1A3,-0.2243
AACAAGUUUAUAGUCACUG,PCDHAC1,0.4666
UUCAUUUCCAUGUGGUAUU,OSBPL10,-0.0941
UUAUGGACAACUUCCAGGC,COL6A4P1,0.3228
UGGUCACACACCGUCAUAG,TIGD5,-0.4004
UACUUCAAGGUGUCUCUGC,GAD1,0.8332
UCUAGUUCCUGCUUGUAGC,ORAI3,0.06211
UUGUUGAGAAGAGUUCUUC,LOC728660,1.09
UGACUACAAAGAGUUCCAG,LOC643085,0.1839
UUCUUCUCCGCGUACUGCC,EEF1D,0.7578
UCGUGUAACAUGAAAGCCC,FBN1,0.2533
AAUGGAUCUAUCACUAUUU,HPRT1,0.1861
UCCGCUUAAAAUCGUAUGC,PTEN,0.2329
UUUAGCUUGAGGAACAUGC,SMCO2,0.4288
UUCAUAUCCAUUUUAAGUU,MIR99AHG,-0.6171
UGUCUAUCCAACUUUUCCC,TCERG1L,0.05567
UAUCAUUCGAUGCAGAGAC,LOC646670,-0.4206
UAAGCUCACACUUGAAAGG,RPL15,0.5568
UGACAGUCAAUGUCAUGCC,LOXL3,1.173
UUAUUAACAAUUAAAAGGC,TMED7,0.05179
AAACCCAAAAGUGGUAGGC,XKR5,0.233
UAGAGUAGAGAAUUCAUUC,ERBB3,-1.538
AAAGUUAUGCCGGAAAGUG,MAL,-0.673
UUCCAUAUCAUUUGCGCUC,FRMPD3,0.6355
UUCUGAACUACAAAGCGGC,HSPH1,0.1886

Once more, the final 5:

siRNA,gene,seed-corrected z-score
AAACCCAAAAGUGGUAGGC,XKR5,0.233
UAGAGUAGAGAAUUCAUUC,ERBB3,-1.538
AAAGUUAUGCCGGAAAGUG,MAL,-0.673
UUCCAUAUCAUUUGCGCUC,FRMPD3,0.6355
UUCUGAACUACAAAGCGGC,HSPH1,0.1886

From PubChem BioAssay record AID1159506 (NCATS, 2015).